Measured values reported in PMC7819943, “Rice protein-binding microarrays: a tool to detect cis-acting elements near promoter regions in rice”.
The other results are listed elsewhere or left out.

Chains of the proteins cited; added tags and fusions are not shown.
UniProt Q0JBA9, entry or part of it: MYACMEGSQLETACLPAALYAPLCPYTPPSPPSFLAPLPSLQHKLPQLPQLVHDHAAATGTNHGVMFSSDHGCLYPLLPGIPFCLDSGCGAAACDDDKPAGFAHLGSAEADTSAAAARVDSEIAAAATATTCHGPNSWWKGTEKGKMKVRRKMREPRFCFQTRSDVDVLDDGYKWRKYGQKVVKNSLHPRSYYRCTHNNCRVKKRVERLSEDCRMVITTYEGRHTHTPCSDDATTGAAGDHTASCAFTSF

target: OsWRKY34 (Oryza sativa, UniProt Q0JBA9 1-250); assay: protein-binding microarray (RPBM); PBS, 2% BSA, 51.3 ng/ul salmon testes DNA, 50 uM zinc acetate, 200 nM TF, 25 C, 1 h; high values mean tight binding; details: protein: recombinant; tags: N-terminal polyhistidine and DsRed monomer fusion (pET32a); label: CyDye5-dUTP incorporated in the synthesized complementary strand; 3' TTTTT single-stranded linker to array surface; dsDNA, one strand shown
In short: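 Transcription factors, each fused N-terminally to a polyhistidine tag and DsRed, were expressed in E. coli BL21-CodonPlus and purified on Ni–NTA. A custom Agilent array was made double-stranded by primer extension with Cy5-dUTP and blocked with 2% BSA. It was incubated with 200 nM protein in PBS, 2% BSA, salmon testes DNA and 50 µM zinc acetate at 25 °C for 1 h, then washed. The binding signal is per-feature fluorescence intensity (arbitrary units) read on an Axon 4000B scanner.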

| Sequence | binding signal |
| --- | --- |
| CGACCGCGCGCAACCACAGCCACCGCCCACAAACTCCAGTCGGAGTCACCTAGTGCAG | 8640 fluorescence intensity (a.u.) |
| TGCTCCACTCTGTTTTTTTTACCAAACACTATTTTTTTAACGGAGTCACCTAGTGCAG | 8210 fluorescence intensity (a.u.) |
| TTTTTGTTCGACCATTCACATCTCGACCAGTCGATTTTCTCGGAGTCACCTAGTGCAG | 9200 fluorescence intensity (a.u.) |
| CCTGCACACAACGCCGCCGCCGTTATTATATATGAACGTTCGGAGTCACCTAGTGCAG | 10900 fluorescence intensity (a.u.) |
| CTTTGATGTGGGTTTTTCTAGTTCCTTCTTCGAGTTCATTCGGAGTCACCTAGTGCAG | 8160 fluorescence intensity (a.u.) |
| TGTGGGCTGCGGTTGACGAGGAGGGAGGGAGGTCGCGATGCGGAGTCACCTAGTGCAG | 8420 fluorescence intensity (a.u.) |
| GGCCCCACCTGCAGCCTCACATCACAAAGCCATCAAAACCCGGAGTCACCTAGTGCAG | 9080 fluorescence intensity (a.u.) |
| TTATCACGCTTCTAGCTTCATTTAAGCCGTCCAAAACCCTCGGAGTCACCTAGTGCAG | 8090 fluorescence intensity (a.u.) |
| CCTCCTCGCGTACGGTTTTTCCCCTTGCGAGATCCATCTCCGGAGTCACCTAGTGCAG | 8880 fluorescence intensity (a.u.) |
| CCACACCACGCGTTTCGTCTCACCCGGGATTTTTTTTTTCCGGAGTCACCTAGTGCAG | 14000 fluorescence intensity (a.u.) |
| TTTTTTTACTTGTTCATCATATTATTTAACTATTAATTTCCGGAGTCACCTAGTGCAG | 8560 fluorescence intensity (a.u.) |
| TTCTTTTCTTTCTCCCTATCTTCAGTTTTGCATTGCGAGACGGAGTCACCTAGTGCAG | 8040 fluorescence intensity (a.u.) |
| GCGGAGGAAAGGTGGGGTGGTAAAAAACGGAAAAACCGGACGGAGTCACCTAGTGCAG | 8960 fluorescence intensity (a.u.) |
| TGCCGTCTGCGGCGGGGCGAAATGTGTGGTGTGGGCTAAACGGAGTCACCTAGTGCAG | 9850 fluorescence intensity (a.u.) |
| GTTCGCGCAAAGCACGCTGCTTTTCTCCGCTTTGCGAGCACGGAGTCACCTAGTGCAG | 9530 fluorescence intensity (a.u.) |
| AAAAGCCACCATTTACCTAGTGTTTTCACTTTGGACGGAGCGGAGTCACCTAGTGCAG | 9420 fluorescence intensity (a.u.) |
| AAGGATAAACAAGTGCGATGAAGTTACACTCAAAACTAAACGGAGTCACCTAGTGCAG | 8210 fluorescence intensity (a.u.) |
| GTTTGACTTTTTTTTTACGGGGAGAATTCTCCTTTGCAATCGGAGTCACCTAGTGCAG | 14900 fluorescence intensity (a.u.) |
| CATCCCTAGCCACTACCTACCCTTTGACAAGCTAGTCCTTCGGAGTCACCTAGTGCAG | 9820 fluorescence intensity (a.u.) |
| GGCAGTATTGTGTCTGGTTTTAGCTAACGTGGCGTATACGCGGAGTCACCTAGTGCAG | 8090 fluorescence intensity (a.u.) |
| TCTTCCGTATTTAAGTGATCGGCACTCAGCAGCTCTGTGACGGAGTCACCTAGTGCAG | 9290 fluorescence intensity (a.u.) |

Shown tab-delimited: entries from further up
Sequence	binding signal
CTTTGATGTGGGTTTTTCTAGTTCCTTCTTCGAGTTCATTCGGAGTCACCTAGTGCAG	8160 fluorescence intensity (a.u.)
GGCCCCACCTGCAGCCTCACATCACAAAGCCATCAAAACCCGGAGTCACCTAGTGCAG	9080 fluorescence intensity (a.u.)
CATCCCTAGCCACTACCTACCCTTTGACAAGCTAGTCCTTCGGAGTCACCTAGTGCAG	9820 fluorescence intensity (a.u.)

Additional results.

| Sequence | binding signal |
| --- | --- |
| GCTGTGGAGTGTGGAGTGCCAATTACTATAGAGATGAACCCGGAGTCACCTAGTGCAG | 9210 fluorescence intensity (a.u.) |
| AATTGTTTTATGATCCTAGTATTCCTTGTTAAGTTACATTCGGAGTCACCTAGTGCAG | 10100 fluorescence intensity (a.u.) |
| TTCACCTGCGTCCCGGGGATCCGGGCCTCGGGCTGCGGCCCGGAGTCACCTAGTGCAG | 8400 fluorescence intensity (a.u.) |
| GAGGTAAGATTAGGGTTAGGGTTTCGATCTTTTCGATCCGCGGAGTCACCTAGTGCAG | 8680 fluorescence intensity (a.u.) |
| CATCCGCTGCCTGAAACATCTCTCTCCATCTCTCTTTAAACGGAGTCACCTAGTGCAG | 11200 fluorescence intensity (a.u.) |
| CCAGTTGACCAATACCAACCGATCCTTACCCGTTCCTCTTCGGAGTCACCTAGTGCAG | 9380 fluorescence intensity (a.u.) |
| GGAGATACGGCGAGGGGAGGGGACGGAGGGGCGGGGTGCGCGGAGTCACCTAGTGCAG | 24700 fluorescence intensity (a.u.) |
| AACCAGCCCATCTAGCCTTGTCATCAACAGCATAAACAAACGGAGTCACCTAGTGCAG | 8360 fluorescence intensity (a.u.) |
| GACTCTCCTGGCCGCTGTCTAGTTGTGCATCTAGCCATTTCGGAGTCACCTAGTGCAG | 9180 fluorescence intensity (a.u.) |
| ATCATCCCATTTGTATATTCCCTAATCTTACATTCTCTGTCGGAGTCACCTAGTGCAG | 11400 fluorescence intensity (a.u.) |
| GCTGAAACAAACTTTCTCAGTCCTATCCACATATCCGACGCGGAGTCACCTAGTGCAG | 8560 fluorescence intensity (a.u.) |
| TATGGTTTGTATCGGCTTTCGCGCTGTTTTGGTAAAACCTCGGAGTCACCTAGTGCAG | 10600 fluorescence intensity (a.u.) |
| ACGAGGTCGCCGTCGGCCACCTCTACCGCTGTCGCCGCCTCGGAGTCACCTAGTGCAG | 11000 fluorescence intensity (a.u.) |
| TTGTTACATACACATCGCTATGCCTATGCATCATTTATCTCGGAGTCACCTAGTGCAG | 8100 fluorescence intensity (a.u.) |
| GATCTATCGAAGCTTTCTAACACTATGGATCTTTGACCATCGGAGTCACCTAGTGCAG | 8410 fluorescence intensity (a.u.) |
| CGCGGCCTCCTCGCCGGTAAACCCCACCACCTCGACATTACGGAGTCACCTAGTGCAG | 8420 fluorescence intensity (a.u.) |
| CTCGCCTCGCCGCCTTTTCTTCGCCATCTTTTTCGATTTCCGGAGTCACCTAGTGCAG | 18800 fluorescence intensity (a.u.) |
| ACATCACAATACCAACTGGAACCCTGATTAACGATTTCCACGGAGTCACCTAGTGCAG | 8910 fluorescence intensity (a.u.) |
| CAGCTAAATGGTCCATCTGATATATATTGCCCGATCCGAACGGAGTCACCTAGTGCAG | 8840 fluorescence intensity (a.u.) |
| AGAGTTTTTTTTGTCAAAATTTATGTTTTAGCCTTTGCTTCGGAGTCACCTAGTGCAG | 9960 fluorescence intensity (a.u.) |
| GTGTAGTACCAAACTGCTTTTCGTTAATGCTCATATCAGTCGGAGTCACCTAGTGCAG | 8290 fluorescence intensity (a.u.) |
